Laboratory results: PubChem BioAssay AID1224830 (NIAID, 2016)

Screen: 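Regulators of TLR4 signalling towards TNF-alpha in macrophage-like cells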 (primary screen)
Cell system: human THP-1 monocytic leukaemia cells, TNF dual-luciferase reporter clone, PMA-differentiated to macrophage-like cells
Reagent: siRNA pool against human genes, 50 nM
Timing: LPS for 4 h, given about 3 days after siRNA transfection
Challenge: bacterial LPS (TLR4 ligand), 10 ng/ml
Detection: 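Ratio of firefly to renilla light, scaled to the plate median and expressed as a robust z-score per replicate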
Direction: TNF reporter robust z-score: higher = stronger TNF reporter response to LPS
Call rule: 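a well is active when its z-score exceeds 2.8 or falls below -1.5; control wells carry no call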
The whole screen tested about 18,000 reagents; below is a random part of them. In the full data, about 2,900 (16%) are marked active. 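Calls are made per well; low scores hint the gene aids the LPS response, high scores that it dampens it.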 Repeated entries: four replicate wells of each siRNA pool.

| target gene | TNF reporter robust z-score | outcome |
| --- | --- | --- |
| UBE2V1 | -0.49 | inactive |
| UBE2V1 | 1.07 | inactive |
| UBE2V1 | -0.03 | inactive |
| UBE2V1 | -0.95 | inactive |
| ZNF101 | 1.46 | inactive |
| ZNF101 | 3.26 | active |
| ZNF101 | 1.05 | inactive |
| ZNF101 | 3.55 | active |
| CHST13 | 1.12 | inactive |
| CHST13 | 1.09 | inactive |
| CHST13 | 0.1 | inactive |
| CHST13 | 1.46 | inactive |
| ARMC2 | -1.09 | inactive |
| ARMC2 | -0.93 | inactive |
| ARMC2 | -0.83 | inactive |
| ARMC2 | -0.8 | inactive |
| SHLD1 | -0.13 | inactive |
| SHLD1 | -1.05 | inactive |
| SHLD1 | 0.29 | inactive |
| SHLD1 | -0.39 | inactive |
| SLC25A42 | -0.17 | inactive |
| SLC25A42 | -0.95 | inactive |
| SLC25A42 | 0.01 | inactive |
| SLC25A42 | -0.58 | inactive |
| ZC3H13 | 0.48 | inactive |
| ZC3H13 | 2.21 | inactive |
| ZC3H13 | 1.58 | inactive |
| ZC3H13 | 2.95 | active |
| CNOT6L | -0.96 | inactive |
| CNOT6L | -0.95 | inactive |
| CNOT6L | -0.9 | inactive |
| CNOT6L | 0.06 | inactive |
| ADAM15 | -0.92 | inactive |
| ADAM15 | -0.12 | inactive |
| ADAM15 | 1 | inactive |
| ADAM15 | 0.64 | inactive |
| GMFB | -0.76 | inactive |
| GMFB | -0.79 | inactive |
| GMFB | 1.53 | inactive |
| GMFB | 3.36 | active |
| TMEM168 | 0.73 | inactive |
| TMEM168 | 0.1 | inactive |
| TMEM168 | -0.06 | inactive |
| TMEM168 | 0.89 | inactive |
| MRPL38 | 1.45 | inactive |
| MRPL38 | -0.31 | inactive |
| MRPL38 | -0.92 | inactive |
| MRPL38 | -0.25 | inactive |
